Article doi:10.1101/2023.02.18.529092
These are yes or no findings as the source states them, for the method shown. For some assays here: Binding seen in cells or lysates may run through a third protein. Some entries that bind do so weakly or less than the wild type. For some assays here: Where a sequence is shown, tags or fusion partners need not be part of it.

By UniProt entry, the sequences of proteins in these tests, tags left out.
UniProt P08753: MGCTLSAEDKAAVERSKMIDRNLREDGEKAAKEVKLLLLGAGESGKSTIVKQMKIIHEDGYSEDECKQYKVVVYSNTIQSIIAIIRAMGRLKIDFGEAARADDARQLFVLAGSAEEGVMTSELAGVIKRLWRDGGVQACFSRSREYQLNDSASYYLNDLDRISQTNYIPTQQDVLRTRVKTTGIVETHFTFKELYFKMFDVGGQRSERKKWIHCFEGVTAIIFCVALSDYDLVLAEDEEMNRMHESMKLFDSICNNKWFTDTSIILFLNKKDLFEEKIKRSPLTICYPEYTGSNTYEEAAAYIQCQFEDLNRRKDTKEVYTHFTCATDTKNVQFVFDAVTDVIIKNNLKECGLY

T1: GST-GIV (aa 1671-1755) (UniProt Q3V6T2)
T1 sequence: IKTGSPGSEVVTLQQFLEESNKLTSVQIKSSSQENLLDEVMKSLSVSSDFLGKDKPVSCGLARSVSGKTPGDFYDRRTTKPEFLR


Assays:
GST-GIV (aa 1671-1755) = molecular target: T1, GST-GIV (aa 1671-1755); assay: pull-down
[1] = molecular target: Gαi3 in membranes isolated from HEK293T cells (BRET assay) (UniProt P08753); assay: FRET or BRET

binding (GST-GIV (aa 1671-1755))	binding [1]	Molecule
binds		Gαi3 (purified; His-Gαi3 in the pull-down) (from UniProt P08753 1-354)
	binds	AEEFFELISKAQSNRADDQRGLL (peptide, UniProt O14924 1187-1209) [R12 GL (GoLoco peptide derived from RGS12)]
